# Data taken from US8404711B2, “5-HT4 receptor agonist compounds for treatment of cognitive disorders” (priority 2009, dated 2013).
# Structures can show the parent of a compound that is named as a salt. Some results were stated once for a whole list of compounds, not compound by compound. Some ranges recur; such a range may be that of the whole group of compounds.
# Tested on: scopolamine-induced cognitive impairment (rat Morris water maze)
# Assay: rat Morris water maze model, scopolamine-induced cognitive impairment
# Assay type: in vivo
# Method: Adult, male Sprague-Dawley rats (body weight range 275-400 g) were handled by the investigator for approximately 5 minutes one day prior to each study. […] A clear Perspex® platform was located in a fixed position 1 cm below the surface of the water, and 34 cm from the wall of the tank. Four visual cues (A4-sized pictures of different black and white symbols) were equally spaced on the wall of the tank, just above the water surface. Black curtains were placed around the tank and white noise was generated throughout the test. Each rat was released into the water, facing the tank wall, at a designated starting point (i.e., at the north side of the tank), and allowed 60 seconds to locate the submerged platform after each placement. The escape latency (in seconds) between release of the rat into the water and its locating the platform was recorded automatically by means of a video camera (San Diego Instrument, CA) and tracking software (SMART software, San Diego Instrument, CA). […] The rats were allowed to remain on the platform for 30 seconds to observe the external visual cues and pair them with the relative position of the platform. […] The number of crossings of the previous platform location and the time spent by the rat in each quadrant were recorded. […]
Structure (SMILES),reversal of scopolamine-induced impairment on day 3 (3 mg/kg i.p. plus scopolamine 0.5 mg/kg),reversal of scopolamine-induced impairment on day 3 (0.1 mg/kg i.p. plus scopolamine 0.5 mg/kg)
"COc1cc2c(cc1OC)C(=O)C(CC1CCN(Cc3ccccc3)CC1)C2 (centres unmarked) [donepezil, donepezil hydrochloride, reference compound]",50-60%,–
"CC(C)n1c(=O)c(C(=O)N[C@H]2C[C@H]3CC[C@@H](C2)N3C[C@@H](O)CN(C)S(C)(=O)=O)cc2ccccc21 [Compound 1, 1-isopropyl-2-oxo-1,2-dihydroquinoline-3-carboxylic acid {(1S,3R,5R)-8-[(R)-2-hydroxy-3-(methanesulfonyl-methyl-amino)propyl]-8-azabicyclo[3.2.1]oct-3-yl}amide]",–,50-60%
